Experimental data: US20050256134A1, “Use of creatine analogues and creatine kinase modulators for the prevention and treatment of glucose metabolic disorders” (AVICENA GROUP, INC., priority 1995, published 2005)
Further values from the same series stand in other lists.

Test system: terminal cancer patients
Test: Phase I/II open label dose escalation study, glucose levels, 3 hour continuous infusion
Type: in vivo, human
Protocol: Cyclocreatine was tested in humans in a phase I/II open label dose escalation study. […] Cyclocreatine was administered at doses that ranged from 10 mg/Kg to 100 mg/Kg. The schedule of administration of cyclocreatine is described in Table 4.
Cohorts of 3 patients were administered drug at each dose level, via a 3 hour continuous infusion in one liter volume of saline. The first week patients received cyclocreatine once, the second week patients received cyclocreatine twice, the third week three times, the fourth week four times, the fifth week five times. On weeks six and seven, no drug was administered to allow the drug to wash out. On week eight, cyclocreatine was given five times. The study included a total of 23 patients (18 male, 5 female) with a median age of 71 years (range 54-85). The patients had different types of malignancies. Eligibility requirements included patients who have failed standard therapy or for whom no therapy was available, normal organ function, have recovered from prior therapies, probability of survival of greater than three months. Reasons for exclusion included: major surgery, life threatening concurrent illness and CNS metastasis. Blood samples were collected at baseline and 1 day before and after the last weekly drug administration on days 1, 7, 9, 14, 17, 21, 25, 28, 33, 40, 47, 49, 54, 61, and 69. Glucose levels were determined for these collected blood samples. […] Not all patients experienced a significant drop in glucose although the trend was there. FIGS. 14 and 15 illustrate graphically individual patients' glucose levels upon treatment with 60 mg/Kg or 80 mg/Kg cyclocreatine. Patient (A) at the 80 mg/Kg dose was diabetic and had many serious complications due to their disease. […] It should be noted that an insufficient number of readings was made shortly after drug administration. It is interesting to note that several patients who were diabetic or had higher glucose levels than normal did respond to cyclocreatine, onen example being illustrated in FIG. 16.

NC1=NCCN1CC(=O)O [cyclocreatine]
Glucose (Ave, 10 mg/kg, Study Day 0): 123 mg/dL | Glucose (Ave, 10 mg/kg, Study Day 1): 119 mg/dL | Glucose (Ave, 10 mg/kg, Study Day 7): 123 mg/dL | Glucose (Ave, 10 mg/kg, Study Day 9): 119 mg/dL | Glucose (Ave, 10 mg/kg, Study Day 14): 110 mg/dL | Glucose (Ave, 10 mg/kg, Study Day 17): 83 mg/dL | Glucose (Ave, 10 mg/kg, Study Day 21): 138 mg/dL | Glucose (Ave, 10 mg/kg, Study Day 25): 102 mg/dL | Glucose (Ave, 10 mg/kg, Study Day 28): 84 mg/dL | Glucose (Ave, 10 mg/kg, Study Day 33): 86 mg/dL | Glucose (Ave, 10 mg/kg, Study Day 40): 121 mg/dL | Glucose (Ave, 10 mg/kg, Study Day 47): 97 mg/dL | Glucose (Ave, 10 mg/kg, Study Day 49): 164 mg/dL | Glucose (Ave, 10 mg/kg, Study Day 54): 102 mg/dL | Glucose (Ave, 10 mg/kg, Study Day 61): 131 mg/dL | Glucose (Ave, 10 mg/kg, Study Day 69): 151 mg/dL | Glucose (Ave, 20 mg/Kg, Study Day 0): 120 mg/dL | Glucose (Ave, 20 mg/Kg, Study Day 1): 129 mg/dL | Glucose (Ave, 20 mg/Kg, Study Day 7): 110 mg/dL | Glucose (Ave, 20 mg/Kg, Study Day 9): 112 mg/dL | Glucose (Ave, 20 mg/Kg, Study Day 14): 144 mg/dL | Glucose (Ave, 20 mg/Kg, Study Day 17): 89 mg/dL | Glucose (Ave, 20 mg/Kg, Study Day 21): 128 mg/dL | Glucose (Ave, 20 mg/Kg, Study Day 25): 97 mg/dL | Glucose (Ave, 20 mg/Kg, Study Day 28): 127 mg/dL | Glucose (Ave, 20 mg/Kg, Study Day 33): 101 mg/dL | Glucose (Ave, 20 mg/Kg, Study Day 40): 112 mg/dL | Glucose (Ave, 20 mg/Kg, Study Day 47): 129 mg/dL | Glucose (Ave, 20 mg/Kg, Study Day 49): 126 mg/dL | Glucose (Ave, 20 mg/Kg, Study Day 54): 90 mg/dL | Glucose (Ave, 20 mg/Kg, Study Day 61): 101 mg/dL | Glucose (Ave, 20 mg/Kg, Study Day 69): 108 mg/dL | Glucose (Ave, 60 mg/Kg, Study Day 0): 116 mg/dL | Glucose (Ave, 60 mg/Kg, Study Day 1): 39 mg/dL | Glucose (Ave, 60 mg/Kg, Study Day 9): 91 mg/dL | Glucose (Ave, 60 mg/Kg, Study Day 14): 102 mg/dL | Glucose (Ave, 60 mg/Kg, Study Day 17): 36 mg/dL | Glucose (Ave, 60 mg/Kg, Study Day 21): 103 mg/dL | Glucose (Ave, 60 mg/Kg, Study Day 25): 78 mg/dL | Glucose (Ave, 60 mg/Kg, Study Day 28): 65 mg/dL | Glucose (Ave, 60 mg/Kg, Study Day 33): 99 mg/dL | Glucose (Ave, 60 mg/Kg, Study Day 40): 75 mg/dL | Glucose (Ave, 60 mg/Kg, Study Day 47): 119 mg/dL | Glucose (Ave, 60 mg/Kg, Study Day 49): 102 mg/dL | Glucose (Ave, 60 mg/Kg, Study Day 54): 72 mg/dL | Glucose (Ave, 60 mg/Kg, Study Day 61): 85 mg/dL | Glucose (Ave, 60 mg/Kg, Study Day 69): 127 mg/dL | Glucose (Ave, 80 mg/Kg, Study Day 0): 151 mg/dL | Glucose (Ave, 80 mg/Kg, Study Day 1): 73 mg/dL | Glucose (Ave, 80 mg/Kg, Study Day 7): 146 mg/dL | Glucose (Ave, 80 mg/Kg, Study Day 9): 170 mg/dL | Glucose (Ave, 80 mg/Kg, Study Day 14): 127 mg/dL | Glucose (Ave, 80 mg/Kg, Study Day 17): 134 mg/dL | Glucose (Ave, 80 mg/Kg, Study Day 21): 172 mg/dL | Glucose (Ave, 80 mg/Kg, Study Day 25): 207 mg/dL | Glucose (Ave, 80 mg/Kg, Study Day 28): 227 mg/dL | Glucose (Ave, 80 mg/Kg, Study Day 33): 206 mg/dL | Glucose (Ave, 80 mg/Kg, Study Day 40): 141 mg/dL | Glucose (Ave, 80 mg/Kg, Study Day 47): 77 mg/dL | Glucose (Ave, 80 mg/Kg, Study Day 49): 185 mg/dL | Glucose (Ave, 80 mg/Kg, Study Day 54): 252 mg/dL | Glucose (Ave, 80 mg/Kg, Study Day 61): 81 mg/dL | Glucose (Ave, 80 mg/Kg, Study Day 69): 81 mg/dL | Glucose (Ave, 100 mg/Kg, Study Day 0): 132 mg/dL | Glucose (Ave, 100 mg/Kg, Study Day 1): 141 mg/dL | Glucose (Ave, 100 mg/Kg, Study Day 7): 130 mg/dL | Glucose (Ave, 100 mg/Kg, Study Day 9): 130 mg/dL | Glucose (Ave, 100 mg/Kg, Study Day 14): 95 mg/dL | Glucose (Ave, 100 mg/Kg, Study Day 17): 133 mg/dL | Glucose (Ave, 100 mg/Kg, Study Day 21): 101 mg/dL | Glucose (Ave, 100 mg/Kg, Study Day 25): 125 mg/dL | Glucose (Ave, 100 mg/Kg, Study Day 28): 153 mg/dL | Glucose (Ave, 100 mg/Kg, Study Day 33): 170 mg/dL | Glucose (Ave, 100 mg/Kg, Study Day 40): 130 mg/dL | Glucose (Ave, 100 mg/Kg, Study Day 47): 111 mg/dL | Glucose (Ave, 100 mg/Kg, Study Day 49): 98 mg/dL | Glucose (Ave, 100 mg/Kg, Study Day 54): 81 mg/dL | Glucose (Ave, 100 mg/Kg, Study Day 61): 104 mg/dL | Glucose (Ave, 100 mg/Kg, Study Day 69): 92 mg/dL | Glucose (Patient 1, 10 mg/kg, Study Day 0): 180 mg/dL | Glucose (Patient 1, 10 mg/kg, Study Day 7): 229 mg/dL | Glucose (Patient 1, 10 mg/kg, Study Day 9): 170 mg/dL | Glucose (Patient 1, 10 mg/kg, Study Day 17): 67 mg/dL | Glucose (Patient 1, 10 mg/kg, Study Day 21): 82 mg/dL | Glucose (Patient 1, 10 mg/kg, Study Day 25): 82 mg/dL | Glucose (Patient 1, 10 mg/kg, Study Day 33): 84 mg/dL | Glucose (Patient 1, 10 mg/kg, Study Day 40): 136 mg/dL | Glucose (Patient 1, 10 mg/kg, Study Day 47): 58 mg/dL | Glucose (Patient 1, 10 mg/kg, Study Day 49): 147 mg/dL | Glucose (Patient 1, 10 mg/kg, Study Day 54): 180 mg/dL | Glucose (Patient 1, 10 mg/kg, Study Day 61): 125 mg/dL | Glucose (Patient 1, 10 mg/kg, Study Day 69): 104 mg/dL | Glucose (Patient 2, 1, 10 mg/kg, Study Day 0): 99 mg/dL | Glucose (Patient 2, 1, 10 mg/kg, Study Day 1): 78 mg/dL | Glucose (Patient 2, 1, 10 mg/kg, Study Day 7): 85 mg/dL | Glucose (Patient 2, 1, 10 mg/kg, Study Day 9): 83 mg/dL | Glucose (Patient 2, 1, 10 mg/kg, Study Day 14): 81 mg/dL
